This experiment concerns the target Flag-RAGE (UniProt Q15109). The experiment can be described thus: co-IP; Flag-RAGE and myc-S100A7 co-expressed in HEK293 (methods: 293T) cells for 48 h; lysates incubated with ANTI-FLAG M2 Affinity Gel at 4°C overnight, gel washed with PBS twice; Western blot with tag antibodies; pcDNA3-Flag empty vector as control. In general terms: A western blot detects proteins with antibodies after separation by electrophoresis.

By UniProt entry, the sequences of proteins in these tests, tags left out. Residues count along the entry.
UniProt Q15109, residues 23-404: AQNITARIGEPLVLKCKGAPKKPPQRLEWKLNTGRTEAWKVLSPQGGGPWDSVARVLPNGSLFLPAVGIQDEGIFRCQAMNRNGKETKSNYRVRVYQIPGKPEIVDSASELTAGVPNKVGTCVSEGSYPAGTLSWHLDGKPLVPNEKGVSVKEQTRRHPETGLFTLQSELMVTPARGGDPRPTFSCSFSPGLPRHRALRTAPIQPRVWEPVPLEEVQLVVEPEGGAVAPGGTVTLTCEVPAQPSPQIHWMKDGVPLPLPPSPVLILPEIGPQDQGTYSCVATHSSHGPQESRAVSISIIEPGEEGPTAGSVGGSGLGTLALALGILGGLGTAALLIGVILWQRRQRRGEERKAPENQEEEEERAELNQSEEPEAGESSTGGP

No constants are given. Whether binding was seen depends on the method and setting. Binding seen in cells or lysates may run through a third protein. Some binding calls cover weakened binding; strength is not graded here. Where a sequence is shown, tags or fusion partners need not be part of it.

B1: myc-S100A7 (protein, UniProt P31151 1-101)
chain: MSNTQAERSIIGMIDMFHKYTRRDDKIEKPSLLTMMKENFPNFLSACDKKGTNYLADVFEKKDKNEDKKIDFSEFLSLLGDIATDYHKQSHGAAPCSGGSQ
Consider B1, for which the binding result is reported as “binds”.

The record behind these values is article PMC5421902.
